This passage reports binding results from patent US20070161060A1 (published 2007).

Chains of the proteins cited; added tags and fusions are not shown. Lines headed by an entry give the natural chain unless they say otherwise; changes in a name come on top. A line that says so, or that is headed by a name, gives the form on record, which may keep a tag or linker. Residues count along the entry.
c-Myc-tagged monomeric E-cadherin C-terminus (P12830, residues 731-882): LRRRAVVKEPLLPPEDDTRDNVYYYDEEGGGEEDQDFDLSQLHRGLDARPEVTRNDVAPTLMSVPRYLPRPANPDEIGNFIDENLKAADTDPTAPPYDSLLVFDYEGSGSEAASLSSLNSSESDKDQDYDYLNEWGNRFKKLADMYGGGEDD
c-Myc-tagged dimeric E-cadherin C-terminus (Myc-HR-ECDT) (P12830, form named): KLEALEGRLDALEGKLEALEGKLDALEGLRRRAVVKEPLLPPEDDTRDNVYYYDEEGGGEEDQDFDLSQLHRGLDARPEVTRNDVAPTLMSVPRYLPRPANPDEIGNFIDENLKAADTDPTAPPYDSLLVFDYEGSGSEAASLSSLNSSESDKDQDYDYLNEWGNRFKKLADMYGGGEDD
UniProt P35222, residues 2-781: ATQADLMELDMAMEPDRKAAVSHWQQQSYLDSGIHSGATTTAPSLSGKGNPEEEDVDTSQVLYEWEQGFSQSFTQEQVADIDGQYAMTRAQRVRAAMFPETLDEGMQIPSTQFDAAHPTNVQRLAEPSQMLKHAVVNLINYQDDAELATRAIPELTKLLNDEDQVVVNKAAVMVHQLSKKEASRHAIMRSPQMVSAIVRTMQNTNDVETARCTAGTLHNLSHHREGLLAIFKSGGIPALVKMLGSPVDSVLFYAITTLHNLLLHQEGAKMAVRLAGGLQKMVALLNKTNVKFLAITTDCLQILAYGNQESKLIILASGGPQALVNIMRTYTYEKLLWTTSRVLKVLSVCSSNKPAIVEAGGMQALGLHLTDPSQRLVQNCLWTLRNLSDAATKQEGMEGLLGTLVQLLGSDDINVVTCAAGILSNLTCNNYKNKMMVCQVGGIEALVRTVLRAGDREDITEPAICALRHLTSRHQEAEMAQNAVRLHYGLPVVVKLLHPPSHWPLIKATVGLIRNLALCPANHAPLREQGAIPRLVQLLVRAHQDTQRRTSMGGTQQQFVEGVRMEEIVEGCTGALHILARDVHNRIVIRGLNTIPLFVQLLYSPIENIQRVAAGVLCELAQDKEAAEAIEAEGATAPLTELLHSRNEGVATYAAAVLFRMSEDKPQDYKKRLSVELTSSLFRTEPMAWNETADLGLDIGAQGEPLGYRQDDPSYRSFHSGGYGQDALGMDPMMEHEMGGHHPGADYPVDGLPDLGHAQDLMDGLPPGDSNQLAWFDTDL

No constants are given. Whether binding was seen depends on the method and setting. Binding seen in cells or lysates may run through a third protein. Some entries that bind do so weakly or less than the wild type.

Assay [1] addresses T1, p120-catenin (UniProt O60716).
T1 sequence (looked up): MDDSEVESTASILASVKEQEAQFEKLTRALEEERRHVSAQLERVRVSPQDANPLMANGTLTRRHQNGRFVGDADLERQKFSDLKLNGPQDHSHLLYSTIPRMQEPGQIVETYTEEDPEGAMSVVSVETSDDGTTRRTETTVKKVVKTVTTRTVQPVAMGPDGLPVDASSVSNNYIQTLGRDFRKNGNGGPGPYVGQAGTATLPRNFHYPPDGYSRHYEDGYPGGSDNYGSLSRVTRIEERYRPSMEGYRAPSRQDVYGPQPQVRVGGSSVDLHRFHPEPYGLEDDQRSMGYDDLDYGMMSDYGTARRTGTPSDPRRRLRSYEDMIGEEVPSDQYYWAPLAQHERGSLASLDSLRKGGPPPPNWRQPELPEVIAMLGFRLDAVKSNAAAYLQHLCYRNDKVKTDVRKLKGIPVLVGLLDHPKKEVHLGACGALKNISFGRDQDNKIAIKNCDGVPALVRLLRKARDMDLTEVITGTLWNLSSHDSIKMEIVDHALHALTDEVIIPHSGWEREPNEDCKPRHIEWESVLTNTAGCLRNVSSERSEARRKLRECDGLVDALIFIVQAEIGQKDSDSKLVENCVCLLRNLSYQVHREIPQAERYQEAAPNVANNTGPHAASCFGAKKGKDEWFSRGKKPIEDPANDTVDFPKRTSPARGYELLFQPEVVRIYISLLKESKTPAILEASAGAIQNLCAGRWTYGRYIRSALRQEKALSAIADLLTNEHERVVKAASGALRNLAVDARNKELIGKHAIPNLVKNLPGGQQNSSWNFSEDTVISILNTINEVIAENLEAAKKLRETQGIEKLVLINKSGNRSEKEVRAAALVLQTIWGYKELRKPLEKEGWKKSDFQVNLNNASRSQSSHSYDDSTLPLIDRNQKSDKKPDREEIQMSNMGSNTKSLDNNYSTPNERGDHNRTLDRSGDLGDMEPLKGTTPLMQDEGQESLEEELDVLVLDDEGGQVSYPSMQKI
As to the kind of experiment: co-IP from HEK293 cells; the monomer is the weaker reference.

For assay [2], the target named is c-Myc-tagged monomeric E-cadherin C-terminus (UniProt P12830). The assay is described as follows: co-IP from HEK293 cells.
The target in assay [3] is c-Myc-tagged dimeric E-cadherin C-terminus (Myc-HR-ECDT) (UniProt P12830). The assay is described as follows: co-IP from HEK293 cells.

For “c-Myc-tagged monomeric E-cadherin C-terminus (from UniProt P12830 731-882)”, in assay [1], the binding result was “binds”.

In the case of β-catenin (from UniProt P35222 2-781), the binding result in assay [2] and in assay [3] was “binds” in each case.
